Results from article PMC7948738.
These are yes or no findings as the source states them, for the method shown. In cells and extracts the contact can be indirect. Some results given as binding are weak or reduced against the parent protein; the word gives no strength.

Chains of the proteins cited; added tags and fusions are not shown.
UniProt P26450: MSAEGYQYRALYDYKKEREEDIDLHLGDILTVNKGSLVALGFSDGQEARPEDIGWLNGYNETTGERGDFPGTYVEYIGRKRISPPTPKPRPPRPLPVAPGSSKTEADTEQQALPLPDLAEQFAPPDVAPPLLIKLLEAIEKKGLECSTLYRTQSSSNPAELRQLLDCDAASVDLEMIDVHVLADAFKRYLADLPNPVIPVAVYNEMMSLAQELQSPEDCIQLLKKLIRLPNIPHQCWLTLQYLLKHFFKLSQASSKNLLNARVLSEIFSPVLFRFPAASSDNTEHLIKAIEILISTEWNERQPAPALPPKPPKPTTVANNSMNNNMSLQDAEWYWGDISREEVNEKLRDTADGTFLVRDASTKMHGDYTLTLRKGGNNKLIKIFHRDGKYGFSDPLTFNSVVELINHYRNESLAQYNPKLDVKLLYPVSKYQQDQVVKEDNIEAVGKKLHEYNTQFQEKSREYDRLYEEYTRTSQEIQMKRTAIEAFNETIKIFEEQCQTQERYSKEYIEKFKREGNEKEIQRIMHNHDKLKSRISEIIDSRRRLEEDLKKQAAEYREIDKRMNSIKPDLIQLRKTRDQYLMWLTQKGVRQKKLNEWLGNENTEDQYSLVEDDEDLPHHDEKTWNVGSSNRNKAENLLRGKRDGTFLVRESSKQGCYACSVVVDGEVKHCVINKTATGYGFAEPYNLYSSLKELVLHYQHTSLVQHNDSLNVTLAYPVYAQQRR

T1: Isoform 1 of zinc finger CCCH domain–containing protein 14 (mouse (endogenous in Ht22)) (UniProt Q8BJ05)
T1 sequence: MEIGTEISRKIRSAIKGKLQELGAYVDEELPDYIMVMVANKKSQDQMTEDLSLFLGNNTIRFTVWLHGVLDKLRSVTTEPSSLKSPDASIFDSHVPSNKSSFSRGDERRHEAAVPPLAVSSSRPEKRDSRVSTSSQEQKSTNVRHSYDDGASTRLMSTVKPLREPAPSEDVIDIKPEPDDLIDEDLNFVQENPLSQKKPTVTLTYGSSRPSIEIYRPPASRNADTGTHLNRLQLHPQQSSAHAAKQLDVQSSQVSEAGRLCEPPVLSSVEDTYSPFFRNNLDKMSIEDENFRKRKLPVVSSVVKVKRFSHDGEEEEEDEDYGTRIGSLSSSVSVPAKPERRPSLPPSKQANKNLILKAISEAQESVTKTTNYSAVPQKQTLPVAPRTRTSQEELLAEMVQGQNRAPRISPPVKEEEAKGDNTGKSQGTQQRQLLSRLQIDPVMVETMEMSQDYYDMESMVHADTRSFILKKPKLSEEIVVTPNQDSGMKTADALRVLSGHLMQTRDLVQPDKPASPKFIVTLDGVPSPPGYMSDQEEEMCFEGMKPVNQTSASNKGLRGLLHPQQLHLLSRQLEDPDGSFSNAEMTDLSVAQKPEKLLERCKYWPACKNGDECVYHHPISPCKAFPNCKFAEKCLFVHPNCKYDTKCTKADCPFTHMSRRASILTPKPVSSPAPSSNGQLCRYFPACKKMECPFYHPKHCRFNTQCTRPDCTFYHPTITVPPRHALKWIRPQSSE


Key:
[1] = biological target: T1, Isoform 1 of zinc finger CCCH domain–containing protein 14 (mouse (endogenous in Ht22)); assay: co-IP; reverse: ZC3H14 isoform 1 captured with ab169061 (Abcam) from Ht22 lysates, blot for PI3K p85
[2] = biological target: Phosphatidylinositol 3-kinase (PI3K) regulatory subunit alpha (mouse (endogenous in Ht22)) (UniProt P26450); assay: co-IP; PI3K p85 captured with CST 4257 from Ht22 lysates, blot for ZC3H14; same protocol as the interactome IP; also after 20 ng/ml PDGFbb or vehicle (more ZC3H14 eluted with PDGFbb)

binding [1]	binding [2]	Molecule
binds		Phosphatidylinositol 3-kinase (PI3K) regulatory subunit alpha (from UniProt P26450 1-724)
	binds	Isoform 1 of zinc finger CCCH domain–containing protein 14 (protein, UniProt Q8BJ05 1-735) MEIGTEISRKIRSAIKGKLQELGAYVDEELPDYIMVMVANKKSQDQMTEDLSLFLGNNTIRFTVWLHGVLDKLRSVTTEPSSLKSPDASIFDSHVPSNKSSFSRGDERRHEAAVPPLAVSSSRPEKRDSRVSTSSQEQKSTNVRHSYDDGASTRLMSTVKPLREPAPSEDVIDIKPEPDDLIDEDLNFVQENPLSQKKPTVTLTYGSSRPSIEIYRPPASRNADTGTHLNRLQLHPQQSSAHAAKQLDVQSSQVSEAGRLCEPPVLSSVEDTYSPFFRNNLDKMSIEDENFRKRKLPVVSSVVKVKRFSHDGEEEEEDEDYGTRIGSLSSSVSVPAKPERRPSLPPSKQANKNLILKAISEAQESVTKTTNYSAVPQKQTLPVAPRTRTSQEELLAEMVQGQNRAPRISPPVKEEEAKGDNTGKSQGTQQRQLLSRLQIDPVMVETMEMSQDYYDMESMVHADTRSFILKKPKLSEEIVVTPNQDSGMKTADALRVLSGHLMQTRDLVQPDKPASPKFIVTLDGVPSPPGYMSDQEEEMCFEGMKPVNQTSASNKGLRGLLHPQQLHLLSRQLEDPDGSFSNAEMTDLSVAQKPEKLLERCKYWPACKNGDECVYHHPISPCKAFPNCKFAEKCLFVHPNCKYDTKCTKADCPFTHMSRRASILTPKPVSSPAPSSNGQLCRYFPACKKMECPFYHPKHCRFNTQCTRPDCTFYHPTITVPPRHALKWIRPQSSE
